These are yes or no findings as the source states them, for the method shown. Binding seen in cells or lysates may run through a third protein. Some results given as binding are weak or reduced against the parent protein; the word gives no strength. Sequences can lack the tags named with a protein.
Target: T1, Sr50 1-163:CFP (rye (Secale cereale))
T1 sequence: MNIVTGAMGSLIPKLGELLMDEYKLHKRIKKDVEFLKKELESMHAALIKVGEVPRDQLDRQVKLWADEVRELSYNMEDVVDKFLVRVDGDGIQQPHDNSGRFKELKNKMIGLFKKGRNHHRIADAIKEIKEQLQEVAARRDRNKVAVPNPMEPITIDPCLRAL
Test: co-immunoprecipitation with anti-GFP antibodies from N. benthamiana leaf cells

B1: Sr50 1-163:HA (other)
chain: T1 sequence
notes: Transiently expressed in N. benthamiana leaf cells under the 35S promoter; also called full CC domain of Sr50 fused to a C-terminal HA tag; not shown: C-terminal HA tag (vector pBIN19-35S::GTW:3HA)
  binding: binds
